Data published in PMC11199980.
No constants are given. Whether binding was seen depends on the method and setting. In cells and extracts the contact can be indirect. Some binding calls cover weakened binding; strength is not graded here.

The chains behind the UniProt entries cited, without tags or fusion partners. Where a name states a change or a piece, a line headed by the entry shows the natural chain unless it says otherwise.
UniProt P40763: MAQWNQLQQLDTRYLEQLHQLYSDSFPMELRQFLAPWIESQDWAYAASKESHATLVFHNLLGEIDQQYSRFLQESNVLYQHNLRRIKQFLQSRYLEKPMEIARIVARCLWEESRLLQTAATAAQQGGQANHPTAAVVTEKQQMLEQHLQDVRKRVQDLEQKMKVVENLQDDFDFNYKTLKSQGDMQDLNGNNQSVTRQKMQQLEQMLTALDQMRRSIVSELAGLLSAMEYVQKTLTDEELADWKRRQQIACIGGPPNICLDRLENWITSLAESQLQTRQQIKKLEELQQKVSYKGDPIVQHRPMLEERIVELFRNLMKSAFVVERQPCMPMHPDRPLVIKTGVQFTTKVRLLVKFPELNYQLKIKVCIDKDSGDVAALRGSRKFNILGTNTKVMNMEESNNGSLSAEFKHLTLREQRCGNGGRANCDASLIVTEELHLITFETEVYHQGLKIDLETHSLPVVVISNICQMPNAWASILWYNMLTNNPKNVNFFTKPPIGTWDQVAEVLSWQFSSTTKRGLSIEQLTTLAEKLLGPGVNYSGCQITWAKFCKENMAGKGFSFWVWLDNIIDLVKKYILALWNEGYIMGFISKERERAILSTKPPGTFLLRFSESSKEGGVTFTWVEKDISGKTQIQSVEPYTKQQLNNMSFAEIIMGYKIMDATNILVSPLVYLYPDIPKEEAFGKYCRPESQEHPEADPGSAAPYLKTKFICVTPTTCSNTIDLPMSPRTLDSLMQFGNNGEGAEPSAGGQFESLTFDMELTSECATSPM
UniProt Q9BRP0: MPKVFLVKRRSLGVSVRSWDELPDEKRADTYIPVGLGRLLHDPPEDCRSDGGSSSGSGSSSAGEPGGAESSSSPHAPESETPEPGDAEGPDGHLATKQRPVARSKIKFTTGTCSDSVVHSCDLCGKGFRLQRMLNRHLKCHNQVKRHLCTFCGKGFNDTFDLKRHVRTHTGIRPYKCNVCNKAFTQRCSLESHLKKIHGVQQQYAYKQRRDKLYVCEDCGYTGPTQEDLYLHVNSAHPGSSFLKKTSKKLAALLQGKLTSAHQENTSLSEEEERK

Assays:
[1] = target: STAT3 WT, expressed from a plasmid (UniProt P40763); assay: co-IP; OVOL2 with STAT3-WT, STAT3C or STAT3D from plasmids; whole-cell lysates immunoprecipitated with an anti-Flag antibody; Western blot
[2] = target: constitutively active STAT3 (STAT3C, A662C N664C) (UniProt P40763); assay: as above
[3] = target: dominant negative STAT3 (STAT3D, Y705F) (UniProt P40763); assay: as above
[4] = target: signal transducer and activator of transcription 3 (STAT3), endogenous in MCF7 cells (human (endogenous in MCF7)) (UniProt P40763); assay: co-IP; endogenous proteins; MCF7 lysates immunoprecipitated with an anti-STAT3 antibody and protein A/G beads, 4 °C overnight; lysis buffer 150 mM NaCl, 20 mM Tris-HCl, 1 mM EDTA, 1 mM EGTA, 1% Triton X-100; Western blot

| Substance | binding [1] | binding [2] | binding [3] | binding [4] |
| --- | --- | --- | --- | --- |
| OVOL2, expressed from a plasmid for the co-IP with STAT3 variants (from UniProt Q9BRP0 1-275) | binds | binds | no binding |  |
| ovo‐like 2 (OVOL2), endogenous in MCF7 cells (from UniProt Q9BRP0 1-275) |  |  |  | binds |
